Hit rate of the full screen: of about 210,000 compounds, about 5,900 (2.8%) were called active. Inconclusive results (about 5%) are left out. Calls follow the shape of the dose curve; as a rule, active = well fitted activation curve with a large enough effect; inconclusive = small, poorly fitted or top-dose-only effect; inactive = no such curve, though single readings can be large or run the other way. The entries are a selection whose mix differs from that of the whole data set. Entries without a call were filed so in the source.
Experiment: qHTS Assay for Enhancers of SMN2 Splice Variant Expression; also: nearly all actives have a fitted effect of over 55% in size; as to activity change, positive = activation: % of control where 0% means no effect
Details: HEK293 SMN2-luciferase splicing reporter, luminescence, 30-36 h; activity change, positive = activation: at 46.1 µM (top of the series) unless noted
In short: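 HEK293 cells carry an SMN2 minigene-luciferase reporter in which exon 7 inclusion puts luciferase in frame. Cells were seeded at 2000 cells/well, attached for 10-12 hours, then exposed to compounds for 30-36 hours at 37C before ONE-Glo luminescence.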
Potency is read from the fitted curve at half-maximal effect.

For CN(C)C=Nc1ncc2c3ccccc3n(CCN(C)C)c2c1C#N, which “activity change, positive = activation” value is on record?
The value was inactive: -51.4%.

Which Potency does the source give for c1ccc(-c2cn3nc(-c4ccccc4)cnc3n2)cc1 here?
The Potency was active: 2 µM.

For Fc1ccc(-c2noc(C3CCN(Cc4cccnc4)CC3)n2)cc1, which activity change, positive = activation is on record?
The activity change, positive = activation was -33.4%.

For CCOc1ccc(C(=S)N2CCCC2)cc1, which activity change, positive = activation is on record?
Its activity change, positive = activation is 22.8%.

For CCOC(=O)C1=C(C)OC(N)=C(C(=O)OCC)C1c1cccnc1 (stereo unspecified), which activity change, positive = activation is on record?
Its activity change, positive = activation is 39.1%.

Which activity change, positive = activation does the source give for COc1ccc(OC)c(S(=O)(=O)Nc2cccc(C(C)=O)c2)c1 here?
The activity change, positive = activation was 30%.

With Cc1cccn2cc(COc3ccc(-c4ccccc4)cc3)nc12 as the compound, how does the activity change, positive = activation read?
Its activity change, positive = activation is 363%.

With O=S(=O)(/N=C(/Nc1cc(N2CCOCC2)ncn1)c1ccccc1)c1ccccc1 as the compound, how does the activity change, positive = activation read?
The activity change, positive = activation was 32.1%.

Which “activity change, positive = activation” value does the source give for COc1ccc(-c2noc(CSc3nc4ccccc4[nH]3)n2)cc1OC here?
The value was inactive: -50.8%.

Which activity change, positive = activation does the source give for Cc1ccc(C)c(NC(=O)CCn2nc(C)cc2C)c1 here?
The activity change, positive = activation was 45.1%.

For CC1=N/C(=C/c2cccnc2)C(=O)O1, which “activity change, positive = activation” value is on record?
Its value is inactive: -18.4%.

With Cc1ccc(C(=O)N/N=C(/CC(=O)c2cccs2)C(F)(F)F)cc1 as the compound, how does the activity change, positive = activation read?
The activity change, positive = activation was -32.8%.

With CCCCCOC(=O)C1=C(C)Nc2ncnn2C1c1cccs1 (stereo unspecified) as the compound, how does the activity change, positive = activation read?
Its activity change, positive = activation is -66.9%.

For CCC(=O)N1c2ccccc2NC2=C(C(=O)CCC2)C1c1ccco1 (stereo unspecified), which activity change, positive = activation is on record?
The activity change, positive = activation was -44.3%.

Which activity change, positive = activation does the source give for CCNc1ccc(S(=O)(=O)N(C)C)cc1NCC(=O)Nc1ccc(F)c(Cl)c1 here?
Its activity change, positive = activation is -66.4%.

With COc1ccc(-c2cc(C(=O)Nc3ccccc3N3CCOCC3)c3ccccc3n2)cc1OC as the compound, how does the “activity change, positive = activation” value read?
The value was inactive: -58.3%.

Which Potency does the source give for COc1ccc2c(=O)c(-c3ccccc3)coc2c1 here?
Its Potency is active: 11.2 µM.

Which “activity change, positive = activation” value does the source give for CNC(=O)COc1ccc(C=O)cc1OC here?
The value was inactive: -35.4%.

With Cc1c(NC(=O)COC(=O)C2(c3ccc(F)cc3)CCCC2)c(=O)n(-c2ccccc2)n1C as the compound, how does the “activity change, positive = activation” value read?
Its value is inactive: -40.7%.

For CC(=O)Nc1ccc(SCC(=O)c2cc(C)n(-c3ccccc3F)c2C)cc1, which “activity change, positive = activation” value is on record?
Its value is inactive: -70.4%.

For O=C(c1ccccc1)c1c[nH]c2cc3c(cc2c1=O)OCCO3, which Potency is on record?
The Potency was active: 22.4 µM.

For COc1ccc(C(C(=O)NC2CCCCC2)N(C(=O)c2sc(C)nc2C)c2ccccc2C)cc1 (stereo unspecified), which activity change, positive = activation is on record?
The activity change, positive = activation was -54.6%.

With Cc1nc2c(c(=O)n1Cc1ccco1)c1nc3ccccc3nc1n2Cc1ccccc1 as the compound, how does the activity change, positive = activation read?
Its activity change, positive = activation is 40.6%.

With CCCCOc1cccc(C(=O)NC(=S)Nc2cccc(NC(=O)c3ccccc3Cl)c2)c1 as the compound, how does the activity change, positive = activation read?
The activity change, positive = activation was -46.9%.

With Cc1ccc(NC(=O)c2ccc(CSc3nnnn3C)cc2)cc1 as the compound, how does the Potency read?
The Potency was active: 8.91 µM.

For CCCCN(CC)CCNC(=O)c1cc2c(=O)n(C)c3ccccc3c2n1C, which activity change, positive = activation is on record?
The activity change, positive = activation was 31.1%.

Which “activity change, positive = activation” value does the source give for CCn1c(SCC(=O)Nc2nc(-c3ccccc3)cs2)nnc1-c1ccccc1O here?
The value was inactive: -42.5%.

Which “activity change, positive = activation” value does the source give for Cc1csc(NC(=O)c2cc([N+](=O)[O-])cc([N+](=O)[O-])c2)n1 here?
The value was inactive: -67.5%.

For O=C(CSCc1ccccc1)N1CCN(c2ccccc2)CC1, which Potency is on record?
Its Potency is active: 12.6 µM.

Which “activity change, positive = activation” value does the source give for O=C(Nc1cccc(Br)c1)c1ccc(OC2CSC2)cc1 here?
The value was inactive: 73.8%.

With CC(C)COc1ccc(C(=O)OCCN2CCOCC2)cc1 as the compound, how does the activity change, positive = activation read?
Its activity change, positive = activation is -35.7%.

With O=C(N/C(=N\O)c1ccccc1)Nc1ccc(Cl)cc1 as the compound, how does the activity change, positive = activation read?
The activity change, positive = activation was 41%.

Which Potency does the source give for COc1ccc(C2NN=C(c3ccc(C)cc3)S2)cc1OC (stereo unspecified) here?
The Potency was active: 11.2 µM.

For COc1ccc(-n2ncc3c(N4CCN(Cc5ccccc5)CC4)ncnc32)cc1, which activity change, positive = activation is on record?
Its activity change, positive = activation is -51.2%.

For Cc1ccc(-c2nc3sc4c(c3c(=O)n2N)CCCC4)cc1, which Potency is on record?
Its Potency is active: 11.2 µM.

Which “activity change, positive = activation” value does the source give for Cc1ccc(NC(=O)c2ccc(CN3CCc4ccccc4C3)cc2)cc1 here?
The value was inactive: -88.4%.

Which activity change, positive = activation does the source give for Cn1c(=O)c2c(nc(NCCO)n2C)n(C)c1=O here?
Its activity change, positive = activation is 33.9%.

For Cc1ccc(C(=O)Nc2nnc(-c3ccco3)o2)cc1, which Potency is on record?
The Potency was active: 12.6 µM.

For COc1ccccc1CNC(=O)CNC(=O)Cn1cnc2ccccc2c1=O, which activity change, positive = activation is on record?
Its activity change, positive = activation is 39.4%.

Which “activity change, positive = activation” value does the source give for Cc1cc(C(=O)Cn2nc(C(=O)O)c3ccccc3c2=O)c(C)n1-c1ccc(OC(F)F)cc1 here?
The value was inactive: -51.5%.

With COc1ccc(N2CCN(C(=O)CSc3ccccc3N)CC2)cc1 as the compound, how does the activity change, positive = activation read?
Its activity change, positive = activation is 29.2%.

For C/C(=N\NC(=O)c1ccccc1O)c1cccs1, which Potency is on record?
Its Potency is active: 3.55 µM.

Which activity change, positive = activation does the source give for NC(=O)C1(N2CCCCC2)CCN(C(=O)CSc2nc3ccccc3s2)CC1 here?
The activity change, positive = activation was 33.5%.

For CCCCCCCn1ccc(=N)cc1, which “activity change, positive = activation” value is on record?
The value was inactive: -90%.

With O=C(Nc1cccnc1)c1ccc(S(=O)(=O)c2ccc(Cl)cc2)cc1 as the compound, how does the “activity change, positive = activation” value read?
Its value is inactive: -79.7%.

For O=S(=O)(c1ccc2ccccc2c1)N1CCC(c2nc(-c3ccncc3)no2)CC1, which “activity change, positive = activation” value is on record?
The value was inactive: -78.2%.

For COc1ccc(OC)c(NC(=O)CSc2nnnn2-c2ccc3c(c2)OCO3)c1, which Potency is on record?
The Potency was active: 35.5 µM.

With CC(=O)c1cc(NC(=O)c2ccc(C)cc2)c(=O)oc1C as the compound, how does the activity change, positive = activation read?
The activity change, positive = activation was 77.9%.

For CCOc1ccccc1NC(=O)C1C2C=CC(O2)C1C(=O)O (stereo unspecified), which activity change, positive = activation is on record?
Its activity change, positive = activation is 27.8%.

Which activity change, positive = activation does the source give for COc1ccc(S(=O)(=O)N(CC(=O)NC2CC2)C2CCCCC2)cc1Cl here?
Its activity change, positive = activation is 39.8%.

For C(=N\Nc1ccccn1)/c1ccc2c(c1)OCCO2, which Potency is on record?
Its Potency is active: 2.51 µM.

With CCOC(=O)c1c(C)nc(-c2ccccc2)nc1N as the compound, how does the activity change, positive = activation read?
Its activity change, positive = activation is 336%.

With COc1cccc(C(=O)NCCC2=CCCCC2)c1OC as the compound, how does the Potency read?
The Potency was active: 12.6 µM.

Which activity change, positive = activation does the source give for COc1ccc2c(c1OC)C(=O)OC2Nc1ncc(Br)cc1Br (stereo unspecified) here?
The activity change, positive = activation was 36.5%.

With O=C(O)c1cc([N+](=O)[O-])ccc1N1CCCCC1 as the compound, how does the “activity change, positive = activation” value read?
The value was inactive: -1.11%.

With COc1ccc(Nc2nc(NCC3CCCO3)c3ccccc3n2)c(OC)c1 (stereo unspecified) as the compound, how does the “activity change, positive = activation” value read?
Its value is inactive: -43.8%.

With O=C(/C=C/c1ccc2c(c1)OCO2)N1CCOCC1 as the compound, how does the activity change, positive = activation read?
Its activity change, positive = activation is 24.4%.

Which “activity change, positive = activation” value does the source give for O=S1(=O)C=C(Sc2nc3ccccc3s2)c2ccccc21 here?
Its value is inactive: -108%.

With CC(C)NS(=O)(=O)c1ccc(OCC(N)=O)c(Cl)c1 as the compound, how does the activity change, positive = activation read?
The activity change, positive = activation was 39.1%.

Which activity change, positive = activation does the source give for Cc1nn(C)c(C)c1NC(=O)c1ccc(Br)o1 here?
Its activity change, positive = activation is -30%.

Which activity change, positive = activation does the source give for Cc1c(Br)c([N+](=O)[O-])nn1CC(=O)N1CCCc2ccccc21 here?
The activity change, positive = activation was 34.9%.

For CC(C)(C)n1ncc(Oc2ccccc2[N+](=O)[O-])c(Cl)c1=O, which “activity change, positive = activation” value is on record?
Its value is inactive: -40.2%.

With FC(F)(F)c1ccc(C2[C@H]3CN(CC4CCCCC4)[C@H](c4ccccc4)C34CC2(c2ccccc2)C4)cc1 (stereo partly specified) as the compound, how does the “activity change, positive = activation” value read?
Its value is inactive: -68.9%.

With CCc1nc(OCc2ccco2)c2sc3nc4c(cc3c2n1)COC(C)(C)C4 as the compound, how does the activity change, positive = activation read?
Its activity change, positive = activation is -32.7%.

For CCOc1cc(CNc2ccccc2SC)ccc1O, which activity change, positive = activation is on record?
Its activity change, positive = activation is 29.5%.

Which activity change, positive = activation does the source give for COCCCNC(=O)c1c(NC(=O)c2cc(=O)c3ccccc3o2)sc2c1CCCC2 here?
The activity change, positive = activation was -43.8%.

Which Potency does the source give for Cn1c(SCc2ccccc2)nnc1-c1ccc2c(c1)OCO2 here?
Its Potency is active: 22.4 µM.

Which activity change, positive = activation does the source give for Cc1ccc(SCCNC(=O)C(C)C)cc1 here?
Its activity change, positive = activation is 37.3%.

Which Potency does the source give for O=C(Nc1ccon1)c1ccc(OC2CCCC2)cc1 here?
The Potency was active: 17.8 µM.

With Cc1ccc(NC(=O)c2cccnc2)cc1S(=O)(=O)N(C)C as the compound, how does the “activity change, positive = activation” value read?
The value was inactive: 5.46%.

For Fc1ccccc1CSc1nc2ncccc2[nH]1, which Potency is on record?
The Potency was active: 22.4 µM.

From PubChem BioAssay AID1458 (National Center for Advancing Translational Sciences (NCATS), 2008)
